The campaign covered roughly 360,000 compounds. About 7,500 (2.1%) were called active. The inconclusive results got no clear call from the source; some entries with a clear call stand among them for comparison. The call rests on the fitted dose curve; in most records, active means well fitted inhibition curve with a large enough effect; inconclusive means small, poorly fitted or top-dose-only effect, or effect the other way; inactive means flat fitted curve, though single readings scatter. Potencies beside an inconclusive call are fits to weak or partial responses and may not hold up.
Test: Nrf2 qHTS screen for inhibitors; further: nearly all actives have a fitted effect of over 60% in size
Details: A549 ARE-Fluc reporter, luciferase luminescence, 18-24 h; activity change, negative = inhibition: at 46 µM (top of the series)
In short: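 Two sequential reads on A549 ARE_Fluc cells exposed to compound for 18-24 h: a CellTiter-Fluor fluorescence read for viability, then a luciferase luminescence read for Nrf2/ARE activity.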
On the % scale 0 is the no-effect control and ±100 the full control effect; potency means the concentration at half of the fitted maximal effect.

| SMILES | Potency | activity change, negative = inhibition |
| --- | --- | --- |
| Cc1ccccc1NS(=O)(=O)c1cc(OCC(N)=O)c(C)cc1Cl | inactive |  |
| COc1ccc(-c2cc(C(F)(F)F)nc(S(C)(=O)=O)n2)cc1 | inconclusive: 29.1 µM [activator, single point] | inactive: 8.04% [at 9.27 µM] |
| O=C(Nc1ccc(Cl)cn1)c1ccc([N+](=O)[O-])o1 | inconclusive: 23.1 µM [activator, partial curve, poor fit] |  |
| Cn1c2ccccc2c2c(C(=O)N3CCN(c4ccccn4)CC3)cn(C3CCCC3)c(=O)c21 | inconclusive: 18.4 µM [falling, single point] |  |
| COc1ccc(-n2ccnc(NCc3ccccc3OC)c2=O)cc1 | inconclusive: 9.2 µM [activator, partial curve] |  |
| COc1ccc(/C=C/CN2CCN(Cc3ccc(F)cc3)C(CCO)C2)cc1 (stereo not given) | inconclusive: 0.82 µM [activator, full curve, poor fit] |  |
| Cc1ccc(-c2ccc(SCC(=O)NC3CCCCC3)nn2)cc1 | inactive |  |
| O=C(Nc1sc2c(c1C(=O)O)CCCC2)c1cccc(Cl)c1 | inconclusive: 6.51 µM [falling, full curve] |  |
| CC(C)(C)OC(=O)N1CCC(C(=O)Nc2ccc3c(c2)CCC3)CC1 | inconclusive: 4.11 µM [activator, partial curve, poor fit] |  |
| Cc1ccc(CC2C(=O)N(c3ccc(C)cc3)C(=O)C2C)cc1 (stereo not given) | inconclusive: 14.6 µM [activator, partial curve] |  |
| Fc1cccc(Nc2nc(-c3ccncc3)nc3ccccc23)c1 | inconclusive: 13 µM [falling, partial curve, poor fit] |  |
| Cc1ccc2c(C)c(C(=O)N(Cc3cccs3)C3CCS(=O)(=O)C3)oc2c1 (stereo not given) | inconclusive: 29.1 µM [falling, partial curve] |  |
| O=C(NNC(=S)NC1CCCCC1)c1ccccc1Cl | inconclusive: 14.6 µM [activator, partial curve, poor fit] |  |
| Cc1ccc(C)c(N(CC(=O)NC2CCCC2)C(=O)c2cc3cc4cccc(C)c4nc3s2)c1 | inconclusive: 1.64 µM [falling, partial curve, poor fit] |  |
| Cc1cccc(OCC(=O)Nc2nc3c(s2)CC(C(C)(C)C)CC3)c1C (stereo not given) | inconclusive: 23.1 µM [falling, single point] |  |
| O=[S+]([O-])([O-])c1ccc2c(c1)cc([S+](=O)([O-])[O-])c1nn(-c3ccc(/C=C/c4ccc(-n5nc6c([S+](=O)([O-])[O-])cc7cc([S+](=O)([O-])[O-])ccc7c6n5)cc4[S+](=O)([O-])[O-])c([S+](=O)([O-])[O-])c3)nc12 | inactive |  |
| Clc1cccc(-c2nc(-c3ccccn3)no2)c1 | inconclusive: 0.461 µM [activator, partial curve, poor fit] |  |
| COc1ccc(C)cc1NC(=O)C(=O)c1cn(CC(=O)N2CCCC2)c2ccccc12 | inconclusive: 20.6 µM [falling, single point] |  |
| Cc1ccccc1NC(=O)NCCCCc1ccccc1 | inconclusive: 29.1 µM [falling, single point] |  |
| CCOC(=O)c1ccccc1NC(=O)CSc1ccc(-c2cccs2)nn1 | inconclusive: 14.6 µM [falling, single point] |  |
| COCCNC(=O)c1ccc(C(=O)C(=O)c2ccccc2)cc1 | inactive |  |
| CCC1C(=O)C(CC)C(c2ccccc2)NC1c1ccccc1 (stereo not given) | inactive |  |

Pulled one by one from the entries so far, 3 records:

| SMILES | Potency | activity change, negative = inhibition |
| --- | --- | --- |
| CCOC(=O)c1ccccc1NC(=O)CSc1ccc(-c2cccs2)nn1 | inconclusive: 14.6 µM [falling, single point] |  |
| Cn1c2ccccc2c2c(C(=O)N3CCN(c4ccccn4)CC3)cn(C3CCCC3)c(=O)c21 | inconclusive: 18.4 µM [falling, single point] |  |
| Cc1ccc2c(C)c(C(=O)N(Cc3cccs3)C3CCS(=O)(=O)C3)oc2c1 (stereo not given) | inconclusive: 29.1 µM [falling, partial curve] |  |

(next part)

| SMILES | Potency | activity change, negative = inhibition |
| --- | --- | --- |
| CCn1c(O)c(N=NC(=S)NCC2CCCO2)c2ccccc21 (stereo not given) | inactive |  |
| CC1CCc2sc(C(=O)NCCCn3ccnc3)cc2C1 (stereo not given) | inconclusive: 29.1 µM [falling, single point] |  |
| O=C(Nc1ccon1)c1cccc(Cl)c1 | inconclusive: 0.058 µM [falling, full curve, poor fit] |  |
| Cc1ccc2occ(CC(=O)N(Cc3ccc(Cl)cc3)C3CCS(=O)(=O)C3)c2c1 (stereo not given) | inconclusive: 23.1 µM [falling, partial curve] |  |
| CCC1CCCCN1C(=O)CSc1nc2c([nH]c3ccccc32)c(=O)n1C (stereo not given) | inconclusive: 29.1 µM [falling, single point] |  |
| CN(C)C(=O)c1ccc(-c2cc3onc(-c4ccccc4)c3c(=O)n2C)cc1 | inconclusive: 4.11 µM [activator, single point] |  |
| Cc1ccc(CSCCNC(=O)/C=C/c2ccccc2Cl)cc1 | inconclusive: 20.6 µM [falling, single point] |  |
| CC1(C)CC(=O)C2=C(C1)OC(N)=C(C#N)C21CCN(C(=O)OCc2ccccc2)CC1 | inconclusive: 32.6 µM [falling, partial curve, poor fit] |  |
| c1ccc2c(c1)Nc1cc3ccccc3cc1O2 | inconclusive: 8.2 µM [activator, partial curve] |  |
| COc1cccc(NC(=O)n2ncc3c(C)cccc32)c1 | inconclusive: 0.58 µM [activator, full curve, poor fit] |  |
| O=C1CC(NS(=O)(=O)c2ccc([N+](=O)[O-])cc2)CN1c1ccc(Cl)cc1 (stereo not given) | inactive |  |
| Cc1cccc(N2CCN(C3=NC(=O)/C(=C\c4cn[nH]c4-c4ccccc4)S3)CC2)c1 | inactive |  |
| Cn1c(/C(C#N)=C(\O)c2ccc(Br)s2)nc2ccccc21 | inconclusive: 3.26 µM [activator, single point] |  |
| O=C1NCC(c2ccccc2)C1C(=O)N/N=C\c1ccc(-c2ccc(Cl)c(Cl)c2)o1 (stereo not given) | inconclusive: 29.1 µM [falling, single point] |  |
| COCCCNC(=O)c1cn(CCOC)c(=O)c2c1c1ccccc1n2C | inactive |  |
| COC(=O)/C(=N/Nc1ccccc1Cl)Sc1nnc(C(O)c2ccccc2)n1-c1ccccc1 (stereo not given) | inconclusive: 32.6 µM [activator, partial curve, poor fit] |  |
| CCOC(=O)C(=CNc1cc(C)nn1C(C)(C)C)C(=O)OCC | inactive |  |
| CC(C)(C)OC(=O)[C@H](Cc1ccccc1)NC(=O)c1[nH]cnc1C(=O)N[C@@H](Cc1ccccc1)C(=O)OCc1ccccc1 | inconclusive: 25.9 µM [falling, single point] |  |
| Cc1ccc(C(=O)Nc2nc(COc3ccccc3)cs2)s1 | inconclusive: 23.1 µM [falling, single point] |  |
| O=C1CCCCC1Sc1nnc(Nc2ccccc2)s1 (stereo not given) | inconclusive: 6.51 µM [activator, partial curve] |  |
| CCCn1c(=O)c(C(=O)NCc2ccccn2)c(O)c2ccccc21 | inconclusive: 23.1 µM [falling, single point] |  |
| CCCCCCSc1cc(-c2nc3cnccn3c2NCc2ccccc2)ccc1OC | inconclusive: 29.1 µM [falling, single point] |  |

| SMILES | Potency | activity change, negative = inhibition |
| --- | --- | --- |
| CCc1c(C)sc(NC(=S)Nc2nc(C)cc(C)n2)c1C(=O)OC | inactive |  |
| CCN(Cc1ccc2c(c1)OCO2)C(=O)/C=C/c1cccc(Br)c1 | inconclusive: 13 µM [activator, partial curve] |  |
| COc1ccc(-c2noc(CCC(=O)Nc3ccc(C(F)(F)F)cc3)n2)cc1 | active: 18.4 µM |  |
| COc1ccc(CC(=O)Nc2ccc(-c3noc(-c4ccccc4OC)n3)cc2)cc1 | inconclusive: 6.51 µM [falling, partial curve] |  |
| Cc1ccccc1CNC(=O)CN1C(=O)CSc2ccc(S(=O)(=O)N(C)C)cc21 | inconclusive: 6.51 µM [falling, partial curve, poor fit] |  |
| N/C(=N\OC(=O)c1ccc(F)cc1)c1cccc([N+](=O)[O-])c1 | inconclusive: 11.6 µM [activator, partial curve, poor fit] |  |
| Cc1ccc(NC(=O)c2ccc(OC(=O)CCN3C(=O)c4ccccc4C3=O)cc2)cc1 | inconclusive: 2.31 µM [activator, partial curve] |  |
| COc1ccc(OC)c(NC(=O)C2CCN(S(=O)(=O)c3ccc4c(c3)OCCO4)CC2)c1 | inconclusive: 8.2 µM [activator, partial curve] |  |
| O=C1c2ccccc2-c2c1c1ccccc1c(=O)n2CCO | inconclusive: 14.6 µM [falling, partial curve, poor fit] |  |
| Cc1ccccc1S(=O)(=O)Cc1ccc(C(=O)NC2CC2)o1 | active: 20.6 µM |  |
| CCCCOc1ccc(S(=O)(=O)NNC(=O)c2cc3ccccc3o2)cc1 | inactive |  |
| COc1ccc2nc(NC(=O)CSc3nccc(C)n3)sc2c1 | inactive |  |
| COc1ccc(NC(=O)Cn2c(=O)n(Cc3ccco3)c(=O)c3ccccc32)cc1 | inconclusive: 23.1 µM [falling, partial curve, poor fit] |  |
| C#CCNC(=O)C1=C[C@H](C2CCCCC2)[C@@H](CCCO)[C@H](OCC)O1 | inconclusive: 18.4 µM [falling, partial curve, poor fit] |  |
| CCN(CC)S(=O)(=O)c1cc(NC(=O)COC(=O)c2c(C)noc2C)ccc1C | active: 20.6 µM |  |
| Cc1ccc2nc(-c3ccc(NS(=O)(=O)c4ccc(F)c(F)c4)cc3)sc2c1 | inconclusive: 11.6 µM [activator, partial curve] |  |
| CCN(CC)S(=O)(=O)c1ccc2c(c1)C(=NO)c1cc(S(=O)(=O)N(CC)CC)ccc1-2 | inactive |  |
| Cc1cc(C)cc(-n2c(N)c(C(=O)Nc3c(C)n(C)n(-c4ccccc4)c3=O)c3nc4ccccc4nc32)c1 | inactive |  |
| CCOC(=O)N1CCc2c(sc3c2c(=O)n(Cc2ccccc2)c(=O)n3Cc2ccccc2Cl)C1 | inconclusive: 7.31 µM [falling, single point] |  |
| COc1ccc(N2CCN(c3ncnc4scc(-c5ccc(F)cc5)c34)CC2)cc1 | inconclusive: 23.1 µM [falling, single point] |  |

Source: PubChem BioAssay AID504444 (National Center for Advancing Translational Sciences (NCATS), 2011)
